The NIST ThermoML archive (doi:10.1021/acs.jced.6b00523)

Test: molar heat capacity at constant pressure
Settings: 101.33 kPa, Metastable crystal, DSC

O=C(c1ccccc1)c1ccccc1 [benzophenone]
Settings	molar heat capacity at constant pressure [J/K/mol]
214.2 K	168.8
218.1 K	171.5
222.1 K	174.4
226.1 K	176.9
230.1 K	179.8
234.1 K	181.4
238 K	183.6
242 K	187.8
246 K	191.3
250 K	193.4
254 K	196.9
258 K	198.8
262.1 K	201.9
266.1 K	204.7
270.1 K	207.6
274.1 K	209.9
278.1 K	213.5
282.1 K	215.6
286.1 K	218.8
290.1 K	221.5
294.1 K	224
